PubChem BioAssay AID1159584 | Peter MacCallum Cancer Centre, 2016
Screen: 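Knock-downs that harm CDH1-null cells more than parental MCF10A cells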 (primary screen). System: human MCF10A breast epithelial cells, parental and CDH1-null. Knock-down reagent: siRNA against human genes. Measurement: 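Cell viability by CellTiter-Glo ATP luminescence, each line scaled to the mean of mock wells across plates, then CDH1-null over parental ratio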. Scale: CDH1-null / parental viability ratio: higher = CDH1-null cells survive relatively better than parental.
This is a random part of about 18,000 reagents tested. Not all columns of the deposit are shown. No sequences are given here. Not stated in the record: the amount of reagent, the time to read-out.

| gene | CDH1-null / parental viability ratio |
| --- | --- |
| TMEM95 (transmembrane protein 95) | 1.06 |
| TAF6 (TATA-box binding protein associated factor 6) | 0.91 |
| LMBRD1 (LMBR1 domain containing 1) | 0.94 |
| SMC3 (structural maintenance of chromosomes 3) | 1.03 |
| IL4R (interleukin 4 receptor) | 0.82 |
| TIMCC (TIM double twin CX3C motif chaperone) | 0.8 |
| ZNF221 (zinc finger protein 221) | 1.18 |
| NMRK1 (nicotinamide riboside kinase 1) | 0.97 |
| SYT16 (synaptotagmin 16) | 1.43 |
| PDE2A (phosphodiesterase 2A) | 1.07 |
| TMEM8B (transmembrane protein 8B) | 0.98 |
| TMEM63C (transmembrane protein 63C) | 0.88 |
| TAS2R14 (taste 2 receptor member 14) | 1.05 |
| THUMPD2 (THUMP domain 2 tRNA and snRNA guanosine methyltransferase) | 0.97 |
| DHRS9 (dehydrogenase/reductase 9) | 0.9 |
| AGBL4 (AGBL carboxypeptidase 4) | 0.99 |
| RAB1A (RAB1A, member RAS oncogene family) | 0.85 |
| SLC35F6 | 0.78 |
| FBXO11 (F-box protein 11) | 1.02 |
| SCAND1 (SCAN domain containing 1) | 1.12 |
| FARSA (phenylalanyl-tRNA synthetase subunit alpha) | 0.91 |
| DKK2 (dickkopf Wnt signaling pathway inhibitor 2) | 1.31 |
| CYTIP (cytohesin 1 interacting protein) | 1.05 |
| PRCD (photoreceptor disc component) | 0.84 |
| ATAD5 (ATPase family AAA domain containing 5) | 0.96 |
| ERCC6 (ERCC excision repair 6, chromatin remodeling factor) | 0.92 |
| OR5B2 (olfactory receptor family 5 subfamily B member 2) | 1.11 |
| RAD23A (RAD23 nucleotide excision repair protein A) | 0.8 |
| OR10AD1 (olfactory receptor family 10 subfamily AD member 1) | 1.15 |
| ADAMTS14 (ADAM metallopeptidase with thrombospondin type 1 motif 14) | 1.72 |
| LRP5L (LDL receptor related protein 5 like (pseudogene)) | 1.26 |
| EMC6 (ER membrane protein complex subunit 6) | 1.19 |
| ATG2A (autophagy related 2A) | 1.32 |
| CRYGB (crystallin gamma B) | 0.95 |
| ECH1 (enoyl-CoA hydratase 1) | 1.24 |
| ABCF1 (ATP binding cassette subfamily F member 1) | 1.16 |
| H2BW1 (H2B.W histone 1) | 1.1 |
| MTMR10 (myotubularin related protein 10) | 1.08 |
| CGB1 (chorionic gonadotropin subunit beta 1) | 1 |
| ANK3 (ankyrin 3) | 0.95 |
| STK26 (serine/threonine kinase 26) | 0.91 |
| OPA3 (outer mitochondrial membrane lipid metabolism regulator OPA3) | 0.9 |
| MS4A2 (membrane spanning 4-domains A2) | 1.35 |
| SV2A (synaptic vesicle glycoprotein 2A) | 0.95 |
| PTPN12 (protein tyrosine phosphatase non-receptor type 12) | 1.32 |
| DMWD (DM1 locus, WD repeat containing) | 1.26 |
| ST6GALNAC2 (ST6 N-acetylgalactosaminide alpha-2,6-sialyltransferase 2) | 1.06 |
| MACROH2A2 (macroH2A.2 histone) | 1.02 |
| LRRC42 (leucine rich repeat containing 42) | 0.9 |
| CAMK4 (calcium/calmodulin dependent protein kinase IV) | 0.77 |
| OR6C6 (olfactory receptor family 6 subfamily C member 6) | 0.85 |
| THRA (thyroid hormone receptor alpha) | 0.95 |
| PARD3B (par-3 family cell polarity regulator beta) | 0.81 |
| ST6GALNAC4 (ST6 N-acetylgalactosaminide alpha-2,6-sialyltransferase 4) | 1.08 |
| BTG3 (BTG anti-proliferation factor 3) | 0.98 |
| FNTB (farnesyltransferase, CAAX box, subunit beta) | 1.07 |
| NICN1 (nicolin 1, tubulin polyglutamylase complex subunit) | 1.24 |
| VCX3A (variable charge X-linked 3A) | 1.08 |
| GPR65 (G protein-coupled receptor 65) | 0.79 |
| EXD2 (exonuclease 3'-5' domain containing 2) | 1.16 |
| SIDT1 (SID1 transmembrane family member 1) | 1.11 |
| RPRD1B (regulation of nuclear pre-mRNA domain containing 1B) | 1.17 |
| SLC12A9 | 1.28 |
| PLK4 (polo like kinase 4) | 0.91 |
| LRRC20 (leucine rich repeat containing 20) | 1 |
| ATRAID (all-trans retinoic acid induced differentiation factor) | 1.31 |
| APOBEC3B (apolipoprotein B mRNA editing enzyme catalytic subunit 3B) | 1.03 |
| RPL18P4 (ribosomal protein L18 pseudogene 4) | 1.58 |

4 successive entries already listed:
| gene | CDH1-null / parental viability ratio |
| --- | --- |
| ADAMTS14 (ADAM metallopeptidase with thrombospondin type 1 motif 14) | 1.72 |
| LRP5L (LDL receptor related protein 5 like (pseudogene)) | 1.26 |
| EMC6 (ER membrane protein complex subunit 6) | 1.19 |
| ATG2A (autophagy related 2A) | 1.32 |
